# At least one structure is not confirmed: it was looked up by name or label, or the drawing left a doubt.
# Key:
# [1] = test system: climbing behavior induced by apomorphine; test: Neuroleptic activity: anti-climbing behavior test (suppression of climbing behavior induced by apomorphine); format: in vivo, mice (dd strain male); conditions: administered subcutaneously
# [2] = test system: climbing behavior (apomorphine); conditions: cited from earlier work
smiles,measurement,setting,value
"O=C1CC2(CCCC2)CC(=O)N1CCCCN1CCN(c2nsc3ccccc23)CC1 [Tiaspiron, 8-[4-(3-benzisothiazolyl)-1-piperazinylbutyl]-8-azaspiro[4,5]decane-7,9-dione]","neuroleptic activity, in words",[1],nearly the same significant level in neuroleptic activity when administered subcutaneously
same,"anti-dopamine activity, in words",[2]; intraperitoneal administration,stronger than chlorpromazine and nearly equal to haloperidol
same,"anti-dopamine activity / neuroleptic activity, in words",[2]; oral administration,drastically reduced by oral administration

# Reference: patent US4745117A, “Imide derivatives and compositions for use as antipsychotic agents” (Sumitomo Pharmaceuticals Company, Limited, priority 1985, dated 1988)
